The list does not hold the whole screen: it gathers tests that were run many times, whatever their T/C, doses with no T/C, and many T/C values between a quarter and a half above the control. Other doses and runs of a compound stand elsewhere. T/C: endpoint of the treated group in % of that of the vehicle group. Some entries give survivors of the animals treated and no T/C: the source files T/C as zero there, which appears to mark a toxic dose or a test without result, not a measured value. Some survivor counts are full or nearly so, which does not show that the dose was tolerated: survival well below the control is almost never listed, so the zero probably covers shortened survival too. Counts of survivors are from the toxicity check (mostly the fifth day) where no day follows; animals may have died later. Schedule codes are those of the source, taken here to give the interval after Q, in days (D) or hours (H), and the number of doses after X. Some schedules carry Z or #; the key to these is not given. Where survival is the endpoint, the PubChem record calls one and a half times the control and up active, and a quarter to a half above the control has no call in these data; cut-offs in other NCI protocols can differ.
Tested on: L1210 leukemia ip in BDF1 mice, survival T/C
Assay: NCI In Vivo Anticancer Drug Screen. Data for tumor model L1210 Leukemia (intraperitoneal) in B6D2F1 (BDF1) mice
Conditions: T/C endpoint: mean survival time, higher T/C = longer survival
[1] = dose: 400.0 mg/kg/injection, schedule: Q04DX003 (ip), vehicle: saline with Tween-80

In the case of CCC1=C(c2cc(Cl)c3ccccc3c2OCC(=O)O)OC(CC)(C(=O)c2cc(Cl)c3ccccc3c2OCC(=O)O)CC1 (centres undefined), the survivor count (dose: 124.0 mg/kg/injection, schedule: Q01DX Z (ip), vehicle: other) is reported as 6 of 6, the survivor count (dose: 248.0 mg/kg/injection, schedule: Q01DX Z (ip), vehicle: other) is reported as 0 of 6 and the survivor count [1] is reported as 4 of 6.

With CN(N=O)C(=O)NCc1ccc(Cl)cc1 the survivor count (dose: 300.0 mg/kg/injection, schedule: Q01DX Z (ip), vehicle: carboxymethylcellulose (CMC)) was 1 of 6.

In the case of O=C(O)c1cccc(F)c1O, the survivor count (dose: 400.0 mg/kg/injection, schedule: Q01DX001 (ip), vehicle: saline) is reported as 1 of 4.

O=c1cc(NCc2ccccc2)[nH]c(=O)[nH]1 was tested, and the survivor count (dose: 200.0 mg/kg/injection, schedule: Q01DX001 (ip), vehicle: Klucel (hydroxypropylcellulose) (HPC)) was 5 of 5.

CC1(C)N=C(N)N=C(N)N1c1cccc(OCCC#N)c1 was tested, and the survivor count (dose: 200.0 mg/kg/injection, schedule: Q04DX003 (ip), vehicle: saline) was 0 of 3 and the survivor count (dose: 400.0 mg/kg/injection, schedule: Q04DX003 (ip), vehicle: saline) was 0 of 3.

With CO/[N+]([O-])=C\C(=O)N/C=C/C(=O)O the survivor count (dose: 30.0 mg/kg/injection, schedule: Q01DX Z (ip), vehicle: carboxymethylcellulose (CMC)) was 2 of 6 and the survivor count (dose: 45.0 mg/kg/injection, schedule: Q01DX Z (ip), vehicle: carboxymethylcellulose (CMC)) was 0 of 6.

C[N+](C)(CC(=O)Nc1ccc(Cl)c(C(F)(F)F)c1)Cc1ccc(Cl)cc1 was tested, and the survivor count (dose: 200.0 mg/kg/injection, schedule: Q04DX003 (ip), vehicle: saline with Tween-80) was 2 of 6 and the survivor count [1] was 0 of 6.

With c1ccc([P+](c2ccccc2)(c2ccccc2)c2ccc([P+](c3ccccc3)(c3ccccc3)c3ccccc3)c3ccccc23)cc1 the T/C (dose: 1.56 mg/kg/injection, schedule: Q04DX003 (ip), vehicle: Klucel (hydroxypropylcellulose) (HPC)) was 135 % of control, the survivor count (dose: 12.5 mg/kg/injection, schedule: Q04DX003 (ip), vehicle: Klucel (hydroxypropylcellulose) (HPC)) was 0 of 6 and the survivor count (dose: 25.0 mg/kg/injection, schedule: Q04DX003 (ip), vehicle: Klucel (hydroxypropylcellulose) (HPC)) was 0 of 6. The survivor count (dose: 50.0 mg/kg/injection, schedule: Q04DX003 (ip), vehicle: Klucel (hydroxypropylcellulose) (HPC)) was 0 of 6, the survivor count (dose: 100.0 mg/kg/injection, schedule: Q04DX003 (ip), vehicle: Klucel (hydroxypropylcellulose) (HPC)) was 0 of 6 and the survivor count (dose: 200.0 mg/kg/injection, schedule: Q04DX003 (ip), vehicle: Klucel (hydroxypropylcellulose) (HPC)) was 0 of 6. The survivor count (dose: 400.0 mg/kg/injection, schedule: Q04DX003 (ip), vehicle: Klucel (hydroxypropylcellulose) (HPC)) was 0 of 6.

N#Cc1cn(C2OC(CO)C(O)C2O)c2ncncc12 (centres undefined) was tested, and the T/C (dose: 100.0 mg/kg/injection, schedule: Q01DX005 (ip), vehicle: saline) was 139 % of control and the survivor count (dose: 200.0 mg/kg/injection, schedule: Q01DX005 (ip), vehicle: saline) was 0 of 6.

For N=C(CNC1CC2CCC1C2)SS(=O)(=O)O (centres undefined), the survivor count (dose: 25.0 mg/kg/injection, schedule: Q04DX002 (ip), vehicle: Klucel (hydroxypropylcellulose) (HPC)) was 2 of 3, the survivor count (dose: 50.0 mg/kg/injection, schedule: Q04DX002 (ip), vehicle: Klucel (hydroxypropylcellulose) (HPC)) was 0 of 3 and the survivor count (dose: 100.0 mg/kg/injection, schedule: Q04DX002 (ip), vehicle: Klucel (hydroxypropylcellulose) (HPC)) was 0 of 3. For the same molecule, the survivor count (dose: 200.0 mg/kg/injection, schedule: Q04DX002 (ip), vehicle: Klucel (hydroxypropylcellulose) (HPC)) was 0 of 3 and the survivor count (dose: 400.0 mg/kg/injection, schedule: Q04DX002 (ip), vehicle: Klucel (hydroxypropylcellulose) (HPC)) was 0 of 3.

For O=Cc1cc(C(=O)c2ccccn2)c2cc(Cl)cc(Cl)c2n1, the survivor count (dose: 400.0 mg/kg/injection, schedule: Q01DX009 (ip), vehicle: Klucel (hydroxypropylcellulose) (HPC)) was 2 of 6.

With [Se]c1ccnc([Se])n1 the survivor count [1] was 4 of 6.

O=C(Nc1ccc(C2=NCCN2)cc1)C(=O)Nc1ccc(C2=NCCN2)cc1 was tested, and the survivor count (dose: 120.0 mg/kg/injection, schedule: Q01DX Z (ip), vehicle: saline) was 0 of 6.
